The numbers were not newly measured in PMC6295285 (Pharmaceutical research, 2018), which cites them from elsewhere.

The series concerns hOCT2. To be noted: read-out: IC50 for hOCT2 obtained previously by others; cited from earlier work.

As for `Cc1ccc(NC(=O)c2ccc(CN3CCN(C)CC3)cc2)cc1Nc1nccc(-c2cccnc2)n1` [Imatinib], the IC50 is 5.81 µM.

As a reminder, the IC50 is the concentration at which inhibition is half-maximal.
